# Laboratory results as given in PubChem BioAssay AID504467 (National Center for Advancing Translational Sciences (NCATS), 2011).
# Screen size: about 330,000 compounds; about 7,700 (2.3%) were called active. Inconclusive results, whose numbers are uncertain, are shown with a selection of clear calls. Calls come from the whole dose curve; as a rule, active = well fitted inhibition curve with a large enough effect; inconclusive = small, poorly fitted or top-dose-only effect, or effect the other way; inactive = flat fitted curve, though single readings scatter. Potencies of inconclusive entries are doubtful fits and often do not repeat.
# Experiment: qHTS screen for small molecules that inhibit ELG1-dependent DNA repair in human embryonic kidney (HEK293T) cells expressing luciferase-tagged ELG1; note: nearly all actives have a fitted effect of over 55% in size
# Conditions: HEK293T ELG1-luciferase reporter, luminescence, 16 h, DNA damage induced by 5-fluorouridine; activity change, negative = inhibition: at 46.1 µM (top of the series)
# In short: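 HEK293T cells expressing luciferase-tagged ELG1 (2,000/well) received 5-Fluorouridine plus compound or DMSO for 16 hr at 37 °C. Luciferase was read by ONE-Glo luminescence after 30 min at room temperature.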
# % is set by controls: 0 for no effect and ±100 for the full control effect; potency is the fitted concentration of half-maximal effect.
SMILES,Potency,"activity change, negative = inhibition"
O=C(COC(=O)[C@@H]1CC(O)CN1S(=O)(=O)c1ccccc1[N+](=O)[O-])Nc1ccc2ccccc2c1 (stereo not given in full),"inconclusive: 20.6 µM [activator, partial curve, poor fit]",
O=C(CCN1CCN(CC(=O)Nc2ccccc2Cl)CC1)Nc1ccccc1F,"inconclusive: 20.6 µM [inhibitor, single point]",
COc1ccccc1CN1CC(C(=O)NCCc2ccccc2Cl)CCC1=O (stereo not given),"inconclusive: 14.6 µM [activator, partial curve]",
CCCCOc1ncnc2c1[nH]c1ccc(OC)cc12,"inconclusive: 1.64 µM [activator, full curve]",
COc1ccc(-c2nc3n(c2C)Cc2ccccc2-3)cc1,"inconclusive: 4.61 µM [activator, partial curve]",
Cc1ccc(NC(=O)N2CCCC2C(=O)Nc2c(C)cc(C)cc2C)cc1 (stereo not given),,inactive: 28.1%
COc1ccccc1N(C)S(=O)(=O)c1ccc(C(=O)Nc2ccc(N3CCOCC3)cc2)cc1,active: 23.1 µM,
O=C(Cc1ccccc1F)Nc1cccc2cccnc12,"inconclusive: 29.1 µM [activator, partial curve, poor fit]",
COc1ccc(C(=O)Nc2ccc3nc4n(c(=O)c3c2)CCCC4)cc1[N+](=O)[O-],"inconclusive: 18.4 µM [activator, single point]",
CN1CCN(C(=O)c2cc([N+](=O)[O-])ccc2Cl)CC1,,inactive: 8.94%
CC(NC(=O)CCc1nnc(-c2ccccc2)o1)c1ccccc1 (stereo not given),"inconclusive: 23.1 µM [activator, partial curve]",
C#Cc1ccc([C@@H]2C=C(C(=O)N3CCN(Cc4ccccc4)CC3)O[C@H](OCCCCO)C2)cc1,"inconclusive: 2.91 µM [inhibitor, full curve]",
CCOc1ccc(NC(=O)c2ccc(NC(=O)CN3C(=O)C(=O)N(CC(C)C)C3=O)cc2)cc1,"inconclusive: 8.2 µM [activator, partial curve]",
N#CCCN(C(=O)COC(=O)COc1ccccc1Cc1ccccc1)c1ccccc1,"inconclusive: 7.3 µM [activator, single point]",
CC(=O)c1cccc(OCC(=O)N(C)CC(=O)NCc2ccco2)c1,"inconclusive: 23.1 µM [activator, partial curve, poor fit]",
CCOC(=O)Cn1c(=O)c2c(nc(Br)n2Cc2ccccc2Cl)n(C)c1=O,"inconclusive: 32.6 µM [inhibitor, single point]",
COc1ccc(/C=N/NC(=O)c2cccc(COCC(F)(F)C(F)F)c2)cc1,,inactive: -0.183%
CCOc1ccc(N(C)S(=O)(=O)c2ccc3[nH]cc(C(=O)NCC4CCCO4)c(=O)c3c2)cc1 (stereo not given),active: 23.1 µM,
O=C(NC1CCCCCC1)c1cc(-c2ccccn2)nc2ccccc12,"inconclusive: 8.2 µM [activator, partial curve, poor fit]",
COc1ccc(-c2nc(NC(C)=O)sc2-c2ccccc2)cc1,active: 20.6 µM,
COc1ccc(/C=C/C(=O)N/C(=C\c2ccco2)C(=O)NCCc2nc3ccccc3[nH]2)cc1,"inconclusive: 13 µM [inhibitor, partial curve]",
CCOC(=O)N/N=C(\C)c1ccc(C)c([N+](=O)[O-])c1,"inconclusive: 29.1 µM [activator, single point]",
Cc1sc(NC(=S)Nc2ccc(F)cc2)c(C(N)=O)c1C,,inactive: 0%

# Ordered by SMILES length (falling): some entries from above
SMILES,Potency,"activity change, negative = inhibition"
O=C(COC(=O)[C@@H]1CC(O)CN1S(=O)(=O)c1ccccc1[N+](=O)[O-])Nc1ccc2ccccc2c1 (stereo not given in full),"inconclusive: 20.6 µM [activator, partial curve, poor fit]",
CCOc1ccc(N(C)S(=O)(=O)c2ccc3[nH]cc(C(=O)NCC4CCCO4)c(=O)c3c2)cc1 (stereo not given),active: 23.1 µM,
COc1ccccc1N(C)S(=O)(=O)c1ccc(C(=O)Nc2ccc(N3CCOCC3)cc2)cc1,active: 23.1 µM,
COc1ccc(C(=O)Nc2ccc3nc4n(c(=O)c3c2)CCCC4)cc1[N+](=O)[O-],"inconclusive: 18.4 µM [activator, single point]",
CCOC(=O)Cn1c(=O)c2c(nc(Br)n2Cc2ccccc2Cl)n(C)c1=O,"inconclusive: 32.6 µM [inhibitor, single point]",
N#CCCN(C(=O)COC(=O)COc1ccccc1Cc1ccccc1)c1ccccc1,"inconclusive: 7.3 µM [activator, single point]",
O=C(CCN1CCN(CC(=O)Nc2ccccc2Cl)CC1)Nc1ccccc1F,"inconclusive: 20.6 µM [inhibitor, single point]",
CC(NC(=O)CCc1nnc(-c2ccccc2)o1)c1ccccc1 (stereo not given),"inconclusive: 23.1 µM [activator, partial curve]",
Cc1sc(NC(=S)Nc2ccc(F)cc2)c(C(N)=O)c1C,,inactive: 0%
CCCCOc1ncnc2c1[nH]c1ccc(OC)cc12,"inconclusive: 1.64 µM [activator, full curve]",
O=C(Cc1ccccc1F)Nc1cccc2cccnc12,"inconclusive: 29.1 µM [activator, partial curve, poor fit]",

# The list goes on.

SMILES,Potency,"activity change, negative = inhibition"
COc1ccc(CCNC(=O)CSc2n[nH]c(C)c2[N+](=O)[O-])cc1OC,"inconclusive: 23.1 µM [activator, single point]",
Cc1cc(Nc2ccc(F)cc2)nc(N)n1,,inactive: -6%
COc1ccc(S(=O)(=O)N2CCCC2C(=O)n2nc(C)cc2C)cc1 (stereo not given),"inconclusive: 29.1 µM [inhibitor, partial curve, poor fit]",
c1ccc2c(c1)CC/C2=N/Nc1nc2ccccc2[nH]1,"inconclusive: 6.51 µM [activator, partial curve]",
O=C(/C=C\Nc1ccc2c(c1)OCO2)c1ccccn1,"inconclusive: 0.164 µM [activator, partial curve]",
COc1ccc(CN(C)C(=O)Cn2cnc(C(=O)Nc3ccc(C)c(C)c3)n2)cc1OC,,inactive: 8.14%
Nc1c(C(=O)O)sc2nc(-c3ccccc3)cc(-c3ccc(Cl)cc3)c12,"inconclusive: 6.51 µM [inhibitor, full curve, poor fit]",
Cc1[nH]c2ccccc2c1C(=O)C(=O)NCc1cccs1,,inactive: 19.6%
NC(=O)c1ccc(/C=N/O)nc1,,inactive: 11.8%
Cc1ccc(C)c(OCC(=O)NCC(C)C)c1C,,inactive: -3.02%
O=C1NC2=C(C(=O)CCC2)C(c2cccc([N+](=O)[O-])c2)N1 (stereo not given),,inactive: -8.58%
N/C(=N\OC(=O)Nc1ccccc1)c1ccno1,"inconclusive: 29.1 µM [activator, partial curve, poor fit]",
c1ccc(N2CCN(Cc3cnc(N4CCOCC4)s3)CC2)cc1,"inconclusive: 20.6 µM [inhibitor, partial curve, poor fit]",
Cc1nnc(-c2cccc(C(F)(F)F)c2)nc1N1CCOCC1,,inactive: -6.65%
CCc1ccc(/C=C(\C)C(=O)c2c(C)cc(C)[nH]c2=O)cc1,"inconclusive: 29.1 µM [inhibitor, single point]",
Clc1ccc(CN2C3=NCCN3c3ccccc32)cc1,,inactive: -22.6%
CN(C)CCOc1ncnc2c1oc1ccccc12,,inactive: 5.68%
CC(C)(C)OC(=O)NCCCC[C@H](NC(=O)c1nc[nH]c1C(=O)N1CCc2ccccc2C1)C(=O)OC(C)(C)C,active: 8.2 µM,
O=C(CSc1nc2[nH]ncc2c(=O)[nH]1)NCc1ccccc1,,inactive: 16.6%
CC(C)NC(=O)Nc1cccc2c1O[C@H](CN(C)C(=O)NC1CCCCC1)[C@H](C)CN([C@H](C)CO)C2=O,"inconclusive: 23.1 µM [activator, single point]",
COc1ccc2ccccc2c1CNc1nnnn1C,"inconclusive: 16.4 µM [activator, single point]",
COc1ccc(C(=O)/C=C/c2cccnc2)c(OC)c1,"inconclusive: 29.1 µM [inhibitor, single point]",
